Data on 1 substance can be found in patent publication US10925923B2 (CAREGEN CO., LTD., priority 2016, dated 2021).

The data set can be described thus: general procedure: Fmoc solid-phase peptide synthesis; CTL resin. The following applies: whole synthesis.

Thr-Met-Arg-Asp (TMRD) came in with a crude mass of 0.8 g. The substance also gave a crude yield (scale of the general procedure 700 mg resin) of 90.1%.
